No constants are given. Whether binding was seen depends on the method and setting. Binding calls can cover weak binding; strength is not graded here. Tags and fused reporters may be left off the sequences shown.

The experiment has as its target human IL2 (Proleukin) (human). As to the kind of experiment: complex formed by mixing antibody and IL2 (mass ratio 1:7, 30 min, room temperature); binding itself not measured.

B1: Fc-mutated humanized IL2 monoclonal antibody hu22F8mu (antibody, human IgG4 S228P, kappa)
heavy: QVQLVQSGAEVKKPGASVKVSCKASGFNIKNTYMHWVRQAPGQGLEWMGRIDPANGNTKYAPKFQGRVTMTRDTSTSTVYMELSSLRSEDTAVYYCGRSRGYAMDYWGQGTTVTVSSASTKGPSVFPLAPCSRSTSESTAALGCLVKDYFPEPVTVSWNSGALTSGVHTFPAVLQSSGLYSLSSVVTVPSSSLGTKTYTCNVDHKPSNTKVDKRVESKYGPPCPPCPAPEFLGGPSVFLFPPKPKDTLMISRTPEVTCVVVDVSQEDPEVQFNWYVDGVEVHNAKTKPREEQFNSTYRVVSVLTVLAQDWLNGKEYKCKVSNKGLPSSIEKTISKAKGQPREPQVYTLPPSQEEMTKNQVSLTCLVKGFYPSDIAVEWESNGQPENNYKTTPPVLDSDGSFFLYSRLTVDKSRWQEGNVFSCSVMHEALHNQYTQKSLSLSLGK
light: DIQMTQSPSSLSASVGDRVTITCKASDHINNWLAWYQQKPGKAPKLLISGATSLETGVPSRFSGSGSGTDYTLTISSLQPEDFATYYCQQYWSTPTFGGGTKLEIKRTVAAPSVFIFPPSDEQLKSGTASVVCLLNNFYPREAKVQWKVDNALQSGNSQESVTEQDSKDSTYSLSSTLTLSKADYEKHKVYACEVTHQGLSSPVTKSFNRGEC
B1: the binding result was “binds”.

The values above are taken from patent publication US20250368751A1.
